For at least one entry, the source does not settle the construct or the ends of the probe. Weaker means in comparison with the reference protein, sequence or condition of that experiment. At least one verdict was read from the data and is not stated in words by the source.
target: PhoB-His(6x), phosphorylated (UniProt P0AFJ5); assay: EMSA; settings: acetylphosphate-treated PhoB, 0-35 uM, 10 mM Mg2+; 20 mM Tris-HCl pH 7.0, 50 mM NaCl, 1 mM DTT, 10 mM MgCl2, 100 ug/ml BSA, 0.5 ug/ml poly dI-dC, 20 fmol DNA, 37 C 15 min; 6% native PAGE in 0.5x TBE; recombinant protein; label: 3'-biotin

Chains of the proteins cited; added tags and fusions are not shown. Lines headed by an entry give the natural chain unless they say otherwise; changes in a name come on top.
UniProt P0AFJ5: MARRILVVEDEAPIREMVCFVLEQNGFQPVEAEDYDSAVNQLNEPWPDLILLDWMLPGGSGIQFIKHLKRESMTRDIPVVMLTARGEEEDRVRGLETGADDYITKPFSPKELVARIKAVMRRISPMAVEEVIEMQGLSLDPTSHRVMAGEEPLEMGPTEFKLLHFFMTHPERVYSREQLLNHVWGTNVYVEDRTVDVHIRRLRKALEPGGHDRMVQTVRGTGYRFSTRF

Row | Sequence | binding result
1 | ATGTTATAGAAACAGCCTGGTTCATTACAAAATTGTAATGCTGCTGTAAGGTTACCCTGG (double strand) [yedX site] | binds
2 | CGATTTATCCATGATCGAATTGTGACATTTGTCATACAACGAATAGGTTTTGTACTTACT (double strand) [yegH site] | binds
3 | TGAGAAATCGCCACATTCGGCATGACAACATTGTGAAACCCGGCATTAGATGTTAGAAAA (double strand) [yhjC site] | binds more weakly
4 | TGGCAATCGCTTATTGGCAAAATGACAATTTTGTCATTTTTCTGTCACCGGAAAATCAGA (double strand) [cusR site] | binds
5 | TCAACAACTCATCCATAAATTTTGCATAATTAATGTAAAGACCAGGCTCGCCAGTAACGC (double strand) [mipA site] | binds
6 | CCGAATATTGGGTTTAGTCTTGTTTCATAATTGTTGCAATGAAACGCGGTGAAACATTGC (double strand) [prpR site] | binds
7 | TCTGTGAAATGTATTTTTATTGTTGCATTTGTGTTGCAATAAACGAAGCTAATGAGCCTG (double strand) [feaR site] | binds
8 | GCGTAACTGCCGGGTTATTGCTTGTCACAAAAAAGTGGTAGACTCATGCAGTTAACTCAC (double strand) [ydfH site] | binds more weakly

same assay, conditions: acetylphosphate-treated PhoB, 10 mM Mg2+; 20 mM Tris-HCl pH 7.0, 50 mM NaCl, 1 mM DTT, 10 mM MgCl2, 100 ug/ml BSA, 0.5 ug/ml poly dI-dC, 20 fmol DNA, 37 C 15 min; 6% native PAGE in 0.5x TBE; recombinant protein; label: 3'-biotin

Row | Sequence | binding result
9 | TTGCGATACGGTATTTCTTATCTGTAATAAAAATTTCACCCGCAGACTTCTGTTATTCAA (double strand) [yddV coding site] | binds
10 | TATCCGCCACGGGGAGTAATAGTCACAGATATATTAATGATAATCACTATCACCATATCG (double strand) [yahA coding site] | binds more weakly
11 | GTTTTCGTTATCAGATAATCGATGTCAAAAAAATGCCACTCGGCAGCGTCACCAAGATCT (double strand) [cof coding site] | binds

— paper PMC3465305
